Measured values as given in patent publication US20160015828A1 (AbbVie / Abbott, published 2016).
No constants are given. Whether binding was seen depends on the method and setting. Some binding calls cover weakened binding; strength is not graded here.

Chains of the proteins cited; added tags and fusions are not shown. Lines headed by an entry give the natural chain unless they say otherwise; changes in a name come on top.
UniProt Q9NYJ7: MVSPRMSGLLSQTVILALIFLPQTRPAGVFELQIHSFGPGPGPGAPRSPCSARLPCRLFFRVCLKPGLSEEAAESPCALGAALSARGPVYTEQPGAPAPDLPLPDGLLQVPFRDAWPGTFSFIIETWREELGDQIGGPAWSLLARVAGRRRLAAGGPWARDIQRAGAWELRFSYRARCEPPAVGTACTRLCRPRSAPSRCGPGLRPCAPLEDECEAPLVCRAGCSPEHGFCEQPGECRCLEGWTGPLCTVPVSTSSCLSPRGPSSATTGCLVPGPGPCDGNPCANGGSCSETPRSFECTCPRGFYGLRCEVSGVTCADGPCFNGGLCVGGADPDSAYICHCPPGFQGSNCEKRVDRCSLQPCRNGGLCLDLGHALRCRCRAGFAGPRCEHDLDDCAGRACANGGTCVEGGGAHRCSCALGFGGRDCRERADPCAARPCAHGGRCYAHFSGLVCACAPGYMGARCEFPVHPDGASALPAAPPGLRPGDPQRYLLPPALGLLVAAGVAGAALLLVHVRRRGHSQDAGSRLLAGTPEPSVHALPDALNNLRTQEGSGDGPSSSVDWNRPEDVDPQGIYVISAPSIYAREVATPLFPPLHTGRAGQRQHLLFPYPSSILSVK

B1: SC16.130 (antibody, V domains shown)
VH: EVQLQQSGPELVKPGASVKMSCKASGYTFTSYVMHWVKQKPGQGLEWIGYINPYNDGTEYNEKFKGKATLTSDKSSSTAYMELSSLTSEDSAVYYCARGVYDGYSYFDYWGQGTTLTVSS
VL: DIQLTQSPASLSASVGETVTITCRASGSIHNYLAWYQQKQGKSPQLLVYNAKTLVDGVPSRFSGSGSGTQYSLKINSLQPEDFGYYYCQHFWTTPWTFGGGTKLEIK
B2: SC16.124 (antibody, V domains shown)
VH: EVQLQQSGPELVKPGASVKMSCKASGYTFTSYVMHWVKQKPGQGLEWIGYINPYNDGTKYNEKFKGKATLTSDKSSSTAYMELSSLTSEDSAVYYCARGALYYGNYLGYFDVWGAGTTVTVSS
VL: DIQMTQSPASQSASLGESVTITCLASQTIGTWLAWYQQKPGKSPQLLISAATSLADGVPSRFSGSGSGTKFSFKISSLQAEDFVSYYCQQLYSTPWTFGGGTKLEIK
B3: SC16.132 (antibody, V domains shown)
VH: QVQLKESGPGLVAPSQSLSITCTVSGFSLTDYGVSWIRQPPGKGLEWLGVVWGGGSTYYNSALKSRLSITKDNSKSQVFLKMNSLQTDDTAMYYCAKQRGQYGAYWGQGTLVTVSA
VL: DIQMTQSPASQSASLGESVTITCLASQTIGTWLAWYQQKPGKSPQLLIYAATSLADGVPSRFSGSGSGTKFSFKISSLQAEDFVSYYCQQLYSTPWTFGGGTKLEIK
B4: SC16.123 (antibody, V domains shown)
VH: QVALKESGPGILQPSQTLSLTCSFSGFSLSTSGMGVGWIRQPSGKGLEWLAHIWWDDVKRYNPALKSRLTISKDTSSSQVFLKIASVDTADTATYYCARMEDYGSSSYFDFWGHGTTLTVSS
VL: QIVLTQSPAIMSASLGERVTMTCTASSSVSSSYLHWYQQKPGSSPKLWIYSTSNLASGVPARFSGSGSGTSYSLTISSMETEDAATYYCHQYHRSPFTFGSGTKLEIK
B5: SC16.137 (antibody, V domains shown)
VH: EVQLVESGGDLVKPGGSLKLSCAASGFTFSSYGMSWVRQTPDKRLEWVATISSGGSYTYYPDSVKGRFTISRDNAKNTLYLQMSSLKSEDTAMYYCARRRADAMDYWGQGTSVTVSS
VL: QIVLTQSPAIMSASLGEEITLTCSASSSVSYMHWYQQKSGTSPKLLIYSTSNLASGVPSRFSGSGSGTFYSLTISSVEAEDAADYYCHQWSSYHTFGGGTKLEIKR
B6: SC16.121 (antibody, V domains shown)
VH: EVQLVESGGGLVQPKGSLKLSCAASGFTFNTYAMNWVRQAPGKGLEWVARIRIKSNNYATYYADSVKDRFTISRDDSQNMLYLQMNNLKTEDTAVYYCVRQGYSYDWGPWFAYWGQGTLVTVSA
VL: QIVLTQSPAIMSASPGEKVTITCSASSSVSYMHWFQQKPGTSPKLWIYSTSNLASGVPARFSGSGSGTSYSLTISRMEAEDAATYYCQQRSSYPPTFGGGTKLEIK
B7: SC16.111 (antibody, V domains shown)
VH: EVQLQQSGPELEKPGASVKISCKASGYSFTGYNMNWVKQSNGKSLEWIGNIDPYYGGSSYKQKFEGKATLTVDKSSSTAYMQLKSLTSEDSAVYYCARGGSNFFDYWGQGTTLTVSS
VL: DIQMTQSPASLAASVGETVTITCRASENIYYSLAWYQQKQGKSPQLLIYNANSLEDGVPSRFSGSGSGTQYSMKINSMQPEDTATYFCKQTYDVPLTFGAGTKLELK
B8: SC16.109 (antibody, V domains shown)
VL: QIVLTQSPAIMSASPGEKVTMTCSASSSVSYMYWYQQKPGSSPRLLIYDTSNLASGVPVRFSGSGSGTSFSLTISRMEAEDTATYYCQEWSGNPLTFGDGTKLELK
V domain: QIQLVQSGPELKKPGETVKISCKASGYTFTNYGMNWVKQAPGKGLKWMGWINTYTGEPAYADDFKGRFAFSLETSASAAYLQINNLKNEDTATFFCANMRPTRGFAYWGQGTLGTVSA
B9: SC16.114 (antibody, V domains shown)
VH: EVQLQQSGAELVKPGASVKLSCTASGFNIKDTYIHWVKQRPEQGLEWIGRIDPANGNTKYDPKFQGKATITPDTSSNTAYLQLSSLTSEDTAVYYCARSWRNYGSSFWYFDVWGAGTTVTVSS
VL: QIVLSQSPAILSASPGEKVTMTCRASSSVSYMHWYQQKPGSSPKPWIYATSNLASGVPARFSGSGSGTSYSLTISRVEAEDAATYYCQQWSSNPYTFGGGTKLEIK
B10: SC16.135 (antibody, V domains shown)
VH: QVQLQQSGAELVRPGTSVKVSCKASGYAFTNYLIEWVKQRPGQGLEWIGVINPGSGGTNSNEKFKAKATLTADKSSSTAYMQLSSLTSADSAVYFCARSDYDYAFYAMDYWGQGTSVTVSS
VL: DIKMTQSPSSMYASLGERVTITCKASQDINRYLSWFQQKPGKSPKTLIYRANRLVDGVPSRFSGSGSGQDYSLTISSLEYEDMGIYYCLQYDEFPFTFGSGTKLEIK
B11: SC16.126 (antibody, V domains shown)
VH: QVQMKESGPGLVAPSQSLSITCTVSGSSLTNYGVHWVRQPPGKGLEWLGVIWAGGSTNYNSALMSRLSISKDNSKSQVFLKMNSLQTDDTAMYYCARDWEGWFAYWGQGTLVTVSA
VL: DIQMNQSPSSLSASLGDTITITCHASQNINVWLSWYQQKPGNIPKLLIYKASNLHTGVPSRFSGSGSGTGFTLTISSLQPEDIATYYCQQGQSYPFTFGSGTKLEIK
B12: SC16.107 (antibody, V domains shown)
VH: EVQLQQSGPELVKPGASVKMSCKASGYTFTNYVMHWVKQKPGQGLEWIGYINPYNDGTKYNEKFKGKATLTSDKSSTTAYMALSSLTSEDSAVYYCAVAYYSNWGFAYWGQGTLVTVSA
VL: DIVMTQSHKFMSTSVGDRVSITCKASQDVNTAVGWYQQKPGQSPKLLIYSASYRYTGVPDRFTGSGSGTDFTFTISSVQAEDLAVYYCQQHYSSPYTFGGGTKVEIK
B13: SC16.116 (antibody, V domains shown)
VH: QVQLKQSGPGRVQPSQSLSITCTVSGFSLTSNGVHWVRQSPGKGLEWLGVLWSGGSTDYNAAFISRLSISKDNYKSQVFFKMNSLQANDTAIYYCARNNNRYGAMDYWGQGTSVTVSS
VL: DIVMTQSPSSLTVTAGEKVTMSCTSSQSLLTSGNQKNYLTWYQQKPGQPPKLLIYWASTRESGVPDRFTGSGSGTDFTLTISSLQAEDLAVYYCQNDYSLTFGAGTKLELK
B14: SC16.110 (antibody, V domains shown)
VH: EVQLQQSGPGLVRTGASVKISCKASGYSFTGYYMHWVKQSHGKSLEWIGYISCYNGATTYNQNFKGKATFIVDTSSSTAYMQFNSLTSEDSAVYYCARSDGGHAMDYWGQGTSVTVSS
VL: NIVMTQTPKFLLVSAGDRVTITCKASQSVSNDVAWYQQKPGQSPKLLIYYASNRYTGVPDRFTGSGYGTDFTFTISTVQAEDLAVYFCQQDYSSPPTFGGGTKLEIK
B15: SC16.133 (antibody, V domains shown)
VH: QVQLKESGPGLVAPSQSLSITCTVSGFSLTNYAVHWVRQSPGKGLEWLGVIWSDGSTDYNAAFISRLSISKDNSKSQVFFKMNSLQADDTAMYYCARKKGGWFPWFAYWGQGTLVTVSA
VL: SIVMTQTPKFLLVSAGDRVTITCKASQSVSNDVAWYQQKPGQSPKLLIYCASNRYTGVPDRFTGSGYGTDFTFTISTVQAEDLAVYFCQQDYSSPLTFGAGTKLELK

Target: DLL3 (UniProt Q9NYJ7)
Experiment: screening on immobilized DLL3 or 293-hDLL3 cells

binding, binds:
B1
B2
B3
B4
B5
B6
B7
B8
B9
B10
B11
B12
B13
B14
B15
